From the supplement of paper PMC4604168 (melanoma cell lines)
Some of the results follow. Many values rest on one well or one pass, so single values are uncertain.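 Cells were imaged in 1,536-well plates, and nuclei stained with an antibody against cleaved PARP were counted against all DNA-stained nuclei to give the apoptosis fraction. Screening doses were chosen to leave most cells alive, and resting and induced cleaved-PARP levels differ strongly between cell lines.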

System: IST-MEL1
Test: cleaved PARP positive nuclei fraction relative to DMSO control; melanoma cells; higher = more apoptosis
Conditions: library dose: low library concentration; 72 h

| SMILES | cleaved PARP positive nuclei fraction [%] |
| --- | --- |
| NCC(=O)Nc1ccc(-n2nc(C(F)(F)F)cc2-c2ccc3c(ccc4ccccc43)c2)cc1 + O=S(=O)(c1ccccc1)N(CC(F)(F)F)c1ccc(C(O)(C(F)(F)F)C(F)(F)F)cc1 [T0901317] (first compound 1 µM, partner dose 1.4 µM) | 41.9 |
| CCCCCCCCCCCC1=C(O)C(=O)C=C(O)C1=O [Embelin] + CC(C)CCN1c2nc(Nc3cc(F)c(O)c(F)c3)ncc2N(C)C(=O)C1C [BID1870] (first compound 1.2 µM, partner dose 0.2 µM) | 40.1 |
| CCc1ccc(CCOc2ccc(CC3SC(=O)NC3=O)cc2)nc1 (stereo unspecified) [pioglitazone] + Oc1nc(-c2ccc(C(F)(F)F)cc2)nc2c1CSCC2 [XAV939] (first compound 2 µM, partner dose 2 µM) | 85.9 |
| COc1ccc2c(c1)CCC1C2CCC2(C)C(NCCCCCCN3C(=O)C=CC3=O)CCC12 (stereo unspecified) + COc1cc2ncnc(Nc3ccc(Oc4ccccc4)cc3)c2cc1OC [SrcI1] (first compound 0.4 µM, partner dose 2 µM) | 44 |
| COc1ccc2c(c1)CCC1C2CCC2(C)C(NCCCCCCN3C(=O)C=CC3=O)CCC12 (stereo unspecified) + Oc1cc(-c2nc(-c3ccccc3)[nH]c2-c2ccncc2)ccc1Cl [L779450] (first compound 0.4 µM, partner dose 0.2 µM) | 119 |
| COc1cc2ncnc(Nc3ccc(Oc4ccccc4)cc3)c2cc1OC + Cc1cc([N+](=O)[O-])ccc1NS(=O)(=O)c1cc(Cl)ccc1Cl [FH535] (first compound 2 µM, partner dose 1 µM) | 160 |
| O=C(Nc1ccccc1)c1cc([N+](=O)[O-])ccc1Cl + CCN(CC)CCCCNc1ncc2cc(-c3cc(OC)cc(OC)c3)c(NC(=O)NC(C)(C)C)nc2n1 [PD173074] (first compound 2 µM, partner dose 0.1 µM) | 56.7 |
| N#Cc1c(O)c2c(-c3ccc(-c4ccccc4O)cc3)csc2[nH]c1=O + O=C(O)C(=O)Nc1sc2c(c1C(=O)O)CCNC2 [TCS401] (first compound 2 µM, partner dose 1.66667 µM) | 81.8 |
| NCC(=O)Nc1ccc(-n2nc(C(F)(F)F)cc2-c2ccc3c(ccc4ccccc43)c2)cc1 + Cc1cc([N+](=O)[O-])ccc1NS(=O)(=O)c1cc(Cl)ccc1Cl [FH535] (first compound 1 µM, partner dose 1 µM) | 49.6 |
| CCc1ccc(CCOc2ccc(CC3SC(=O)NC3=O)cc2)nc1 (stereo unspecified) [pioglitazone] + CCCCCCCCCCCC1=C(O)C(=O)C=C(O)C1=O [Embelin] (first compound 2 µM, partner dose 1.2 µM) | 56.6 |
| Oc1nc(-c2ccc(C(F)(F)F)cc2)nc2c1CSCC2 + CCCCCCCCCCCC1=C(O)C(=O)C=C(O)C1=O [Embelin] (first compound 2 µM, partner dose 1.2 µM) | 114 |
| Cc1cc([N+](=O)[O-])ccc1NS(=O)(=O)c1cc(Cl)ccc1Cl + COc1cc(N2CCC(N3CCN(C)CC3)CC2)ccc1Nc1ncc(Cl)c(Nc2ccccc2S(=O)(=O)C(C)C)n1 [NVP-TAE684] (first compound 1 µM, partner dose 0.08 µM) | 265 |
| COc1cc2ncnc(Nc3ccc(Oc4ccccc4)cc3)c2cc1OC + Cn1cc(/C=C2\C(=O)Nc3cccnc32)c2ccccc21 [GW441756] (first compound 2 µM, partner dose 0.4 µM) | 58.8 |
| CN(C)S(=O)(=O)c1ccc2c(c1)/C(=C/c1cc3c([nH]1)CCCC3)C(=O)N2 + O=C1NC(=O)/C(=C/c2ccc(-c3ccc(F)cc3O)o2)S1 [AS252424] (first compound 0.4 µM, partner dose 1 µM) | 89 |
| COc1cc2ncnc(Nc3ccc(Oc4ccccc4)cc3)c2cc1OC + CCCCCCCCCCCC1=C(O)C(=O)C=C(O)C1=O [Embelin] (first compound 2 µM, partner dose 1.2 µM) | 151 |
| O=C(O)c1ccc(-c2c[nH]c3ncc(-c4ccccc4)cc23)cc1C1CCCC1 + COc1cc2ncnc(Nc3ccc(Oc4ccccc4)cc3)c2cc1OC [SrcI1] (first compound 0.16 µM, partner dose 2 µM) | 60.2 |
| NCC(=O)Nc1ccc(-n2nc(C(F)(F)F)cc2-c2ccc3c(ccc4ccccc43)c2)cc1 + Oc1cc(-c2nc(-c3ccccc3)[nH]c2-c2ccncc2)ccc1Cl [L779450] (first compound 1 µM, partner dose 0.2 µM) | 195 |
| COc1cc2c(Oc3ccc4[nH]c(C)cc4c3F)ncnc2cc1OCCCN1CCCC1 [cediranib] + O=C1NC(=O)/C(=C/c2ccc(-c3ccc(F)cc3O)o2)S1 [AS252424] (first compound 0.4 µM, partner dose 1 µM) | 55.2 |

| SMILES | cleaved PARP positive nuclei fraction [%] |
| --- | --- |
| CN(C)S(=O)(=O)c1ccc2c(c1)/C(=C/c1cc3c([nH]1)CCCC3)C(=O)N2 + Cn1cc(/C=C2\C(=O)Nc3cccnc32)c2ccccc21 [GW441756] (first compound 0.4 µM, partner dose 0.4 µM) | 102 |
| N#Cc1c(O)c2c(-c3ccc(-c4ccccc4O)cc3)csc2[nH]c1=O + Cn1cc(/C=C2\C(=O)Nc3cccnc32)c2ccccc21 [GW441756] (first compound 2 µM, partner dose 0.4 µM) | 89.9 |
| O=C(Nc1ccccc1)c1cc([N+](=O)[O-])ccc1Cl + CCCCCCCCCCCC1=C(O)C(=O)C=C(O)C1=O [Embelin] (first compound 2 µM, partner dose 1.2 µM) | 100 |
| CCc1ccc(CCOc2ccc(CC3SC(=O)NC3=O)cc2)nc1 (stereo unspecified) [pioglitazone] + O=C(Nc1ccccc1)c1cc([N+](=O)[O-])ccc1Cl [GW9662] (first compound 2 µM, partner dose 2 µM) | 109 |
| COc1ccc2c(c1)CCC1C2CCC2(C)C(NCCCCCCN3C(=O)C=CC3=O)CCC12 (stereo unspecified) + CCCCCCCCCCCC1=C(O)C(=O)C=C(O)C1=O [Embelin] (first compound 0.4 µM, partner dose 1.2 µM) | 284 |
| Oc1cc(-c2nc(-c3ccccc3)[nH]c2-c2ccncc2)ccc1Cl + CCCCCCCCCCCC1=C(O)C(=O)C=C(O)C1=O [Embelin] (first compound 0.2 µM, partner dose 1.2 µM) | 61.6 |
| Oc1cc(-c2nc(-c3ccccc3)[nH]c2-c2ccncc2)ccc1Cl + Cc1cc([N+](=O)[O-])ccc1NS(=O)(=O)c1cc(Cl)ccc1Cl [FH535] (first compound 0.2 µM, partner dose 1 µM) | 109 |
| COc1cc2c(Oc3ccc4[nH]c(C)cc4c3F)ncnc2cc1OCCCN1CCCC1 [cediranib] + CCCCCCCCCCCC1=C(O)C(=O)C=C(O)C1=O [Embelin] (first compound 0.4 µM, partner dose 1.2 µM) | 126 |
| NCC(=O)Nc1ccc(-n2nc(C(F)(F)F)cc2-c2ccc3c(ccc4ccccc43)c2)cc1 + Cn1cc(/C=C2\C(=O)Nc3cccnc32)c2ccccc21 [GW441756] (first compound 1 µM, partner dose 0.4 µM) | 88.9 |
| Oc1nc(-c2ccc(C(F)(F)F)cc2)nc2c1CSCC2 + O=c1cc(-c2cccc3c2Sc2ccccc2S3)oc(N2CCOCC2)c1 [KU55933] (first compound 2 µM, partner dose 1 µM) | 172 |
| O=C(O)C(=O)Nc1sc2c(c1C(=O)O)CCNC2 + O=C1NC(=O)/C(=C/c2ccc(-c3ccc(F)cc3O)o2)S1 [AS252424] (first compound 1.66667 µM, partner dose 1 µM) | 176 |
| COC(=O)c1sccc1S(=O)(=O)Nc1ccc(Nc2ccccc2)cc1OC + COc1cc(N2CCC(N3CCN(C)CC3)CC2)ccc1Nc1ncc(Cl)c(Nc2ccccc2S(=O)(=O)C(C)C)n1 [NVP-TAE684] (first compound 1 µM, partner dose 0.08 µM) | 78.5 |
| NCC(=O)Nc1ccc(-n2nc(C(F)(F)F)cc2-c2ccc3c(ccc4ccccc43)c2)cc1 + COc1ccc(-c2ccc3c(N4CCOCC4)nc(N4C[C@@H](C)O[C@@H](C)C4)nc3n2)cc1CO [KU0063794] (first compound 1 µM, partner dose 0.02 µM) | 101 |
| CN(C)S(=O)(=O)c1ccc2c(c1)/C(=C/c1cc3c([nH]1)CCCC3)C(=O)N2 + N#Cc1c(O)c2c(-c3ccc(-c4ccccc4O)cc3)csc2[nH]c1=O [A769662] (first compound 0.4 µM, partner dose 2 µM) | 177 |
| CN(C)S(=O)(=O)c1ccc2c(c1)/C(=C/c1cc3c([nH]1)CCCC3)C(=O)N2 + Oc1nc(-c2ccc(C(F)(F)F)cc2)nc2c1CSCC2 [XAV939] (first compound 0.4 µM, partner dose 2 µM) | 85.4 |
| COc1cc2ncnc(Nc3ccc(Oc4ccccc4)cc3)c2cc1OC + Oc1cc(-c2nc(-c3ccccc3)[nH]c2-c2ccncc2)ccc1Cl [L779450] (first compound 2 µM, partner dose 0.2 µM) | 69.3 |
| NCC(=O)Nc1ccc(-n2nc(C(F)(F)F)cc2-c2ccc3c(ccc4ccccc43)c2)cc1 + CCCCCCCCCCCC1=C(O)C(=O)C=C(O)C1=O [Embelin] (first compound 1 µM, partner dose 1.2 µM) | 83.8 |
| COc1cc2ncnc(Nc3ccc(Oc4ccccc4)cc3)c2cc1OC + c1cc(-c2cnn3cc(-c4ccc(OCCN5CCCCC5)cc4)cnc23)ccn1 [Dorsomorphin] (first compound 2 µM, partner dose 0.4 µM) | 45.5 |

Some of the entries so far, in CSV form:
SMILES,cleaved PARP positive nuclei fraction [%]
"COc1cc2ncnc(Nc3ccc(Oc4ccccc4)cc3)c2cc1OC + CCCCCCCCCCCC1=C(O)C(=O)C=C(O)C1=O [Embelin] (first compound 2 µM, partner dose 1.2 µM)",151
"CCc1ccc(CCOc2ccc(CC3SC(=O)NC3=O)cc2)nc1 (stereo unspecified) [pioglitazone] + O=C(Nc1ccccc1)c1cc([N+](=O)[O-])ccc1Cl [GW9662] (first compound 2 µM, partner dose 2 µM)",109
